The text below walks through data of US5486595A (Centecor, Inc., priority 1994, dated 1996).

A short description of one series: general procedure: Boc solid-phase peptide synthesis; Boc-Leu-PAM resin. The settings on record: whole synthesis, scale 0.5 mmol.
For “Arginyl-glutamyl-asparaginyl-glutamyl-cysteinyl-valyl-seryl-cysteinyl-seryl-asparaginyl-cysteinyl-lysyl-lysyl-seryl-leucyl-glutamyl-cysteinyl-threonyl-lysyl-leucine”, the crude mass turned out to be 652 mg.

The nature of another series: general procedure: Boc solid-phase peptide synthesis; 4-Methyl benzhydrylamine resin. Particulars: whole synthesis, scale 0.5 mmol.
Regarding “Leucyl-tyrosyl-asparaginyl-aspartyl-alanyl-prolyl-glycyl-prolyl-glycyl-glutaminyl-aspartyl-threonyl-aspartyl-alanyl-arginine Amide”, the crude mass came out at 720 mg.

The next series in a line: general procedure: Boc solid-phase peptide synthesis; 4-Methyl benzhydrylamine resin (Boc-Leu-PAM resin for one peptide). Particulars: whole synthesis, scale 0.5 mmol.
As for “Acetyl-alanyl-phenylalanyl-asparaginyl-alanyl-seryl-leucyl-alanyl-leucyl-asparaginyl-glycyl-threonyl-valyl-histidyl-leucyl-serine Amide”, the crude mass is on record as 585 mg.

In turn, “Acetyl-glutaminyl-tyrosyl-arginyl-histidyl-tyrosyl-tryptophyl-seryl-glutamyl-asparaginyl-leucyl-phenylalanyl-glutaminyl-alanyl-phenylalanyl-asparagineAmide” came in with a crude mass of 780 mg. The same measure, in the same setting: for “Acetyl-leucyl-phenylalanyl-glutaminyl-alanyl-phenylalanyl-asparaginyl-alanyl-seryl-leucyl-alanyl-leucyl-asparaginyl-glycyl-threonyl-valine Amide” the value was 839 mg; for “Aspartyl-threonyl-valyl-alanyl-glycyl-alanyl-arginyl-lysyl-asparaginyl-glutaminyl-tyrosyl-arginyl-histidyl-tyrosyl-tryptophan Amide”, 1190 mg; for “Glutaminyl-aspartyl-threonyl-aspartyl-alanyl-arginyl-glutamyl-alanyl-glutamyl-seryl-glycyl-seryl-phenylalanyl-threonyl-alanine Amide”, 660 mg. On the same count and under the same terms, in the case of “Glutaminyl-glutamyl-lysyl-glutaminyl-asparaginyl-threonyl-valyl-alanyl-threonyl-alanyl-histidyl-alanyl-glycyl-phenylalanyl-phenylalanyl-leucyl-arginyl-glutamyl-asparaginyl-glutamic Acid Amide” it was 976 mg; in that of “Glutamyl-alanyl-glutamyl-seryl-glycyl-seryl-phenylalanyl-threonyl-alanyl-seryl-glutamyl-asparaginyl-histidyl-leucyl-arginine Amide”, 783 mg. In turn, “Glycyl-prolyl-glycyl-glutaminyl-aspartyl-threonyl-aspartyl-alanyl-arginyl-glutamyl-alanyl-glutamyl-seryl-glycyl-serine Amide” registered a crude mass of 960 mg.

As to “Leucyl-alanyl-leucyl-prolyl-glutaminyl-isoleucyl-glutamyl-asparaginyl-valyl-lysyl-glycyl-threonyl-glutamyl-aspartyl-serine Amide”, the crude mass came out at 943 mg. As for “Lysyl-glutaminyl-asparaginyl-threonyl-valyl-alanyl-threonyl-alanyl-histidyl-alanyl-glycyl-phenylalanyl-phenylalanyl-leucyl-arginine Amide”, the crude mass worked out at 743 mg.

In turn, “Prolyl-glutaminyl-isoleucyl-glutamyl-asparaginyl-valyl-lysyl-glycyl-threonyl-glutamyl-asparaginyl-seryl-glycyl-threonyl-threonine Amide” came in with a crude mass of 790 mg. The substance “Seryl-leucyl-glutamyl-alanyl-threonyl-lysyl-leucyl-alanyl-leucyl-prolyl-glutaminyl-isoleucyl-glutamyl-asparaginyl-valine Amide” returned a crude mass of 815 mg.
